Results taken from PMC12819557.
No constants are given. Whether binding was seen depends on the method and setting.

Tests used:
Experiment in all cases: two-hybrid; bacterial adenylate cyclase two-hybrid (BACTH) in E. coli Oxi-Blue; T18 (FLAG) and T25 (6His) fusions co-transformed; LB agar with Tic, Km, IPTG 0.5 mM and X-gal 40 µg/ml, 30 °C, colour of colonies after 24 to 48 h
[1] = target: T1, C-terminal domain of PilC1 (pilC1 476-1021) (Neisseria meningitidis) (UniProt O05924)
T1 sequence: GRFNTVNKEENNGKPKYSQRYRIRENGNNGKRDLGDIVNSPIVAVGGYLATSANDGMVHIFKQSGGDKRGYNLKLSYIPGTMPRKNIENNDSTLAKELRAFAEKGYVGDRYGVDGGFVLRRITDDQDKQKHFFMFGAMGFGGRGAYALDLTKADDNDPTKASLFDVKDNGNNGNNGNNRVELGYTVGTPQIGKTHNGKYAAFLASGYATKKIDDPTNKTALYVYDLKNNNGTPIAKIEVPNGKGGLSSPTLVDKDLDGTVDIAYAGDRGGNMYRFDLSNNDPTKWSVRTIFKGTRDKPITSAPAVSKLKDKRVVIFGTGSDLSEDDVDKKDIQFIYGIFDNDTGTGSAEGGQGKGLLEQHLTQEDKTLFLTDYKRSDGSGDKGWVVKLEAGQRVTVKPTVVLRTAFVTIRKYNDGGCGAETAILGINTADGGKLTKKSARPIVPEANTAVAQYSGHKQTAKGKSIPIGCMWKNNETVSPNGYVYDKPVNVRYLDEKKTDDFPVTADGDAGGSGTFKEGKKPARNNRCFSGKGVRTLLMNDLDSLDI

[2] = target: T2, N-terminal domain of PilC1 (pilC1 1-475) (Neisseria meningitidis) (UniProt O05924)
T2 sequence: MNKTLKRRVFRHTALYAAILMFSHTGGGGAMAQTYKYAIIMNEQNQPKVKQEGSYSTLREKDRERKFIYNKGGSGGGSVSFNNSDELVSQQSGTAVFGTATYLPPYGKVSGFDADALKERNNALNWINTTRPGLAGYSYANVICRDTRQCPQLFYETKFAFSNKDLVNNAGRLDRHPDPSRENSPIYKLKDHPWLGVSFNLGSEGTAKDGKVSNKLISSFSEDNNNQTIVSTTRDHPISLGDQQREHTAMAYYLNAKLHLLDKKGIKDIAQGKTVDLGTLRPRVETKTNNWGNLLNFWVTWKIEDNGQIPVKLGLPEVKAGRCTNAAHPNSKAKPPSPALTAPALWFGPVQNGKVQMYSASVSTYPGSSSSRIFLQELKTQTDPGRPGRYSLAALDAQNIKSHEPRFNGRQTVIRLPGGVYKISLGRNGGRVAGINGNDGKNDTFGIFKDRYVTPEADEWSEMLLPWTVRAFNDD

[3] = target: T3, N-terminal domain of PilC2 (pilC2 2-492) (Neisseria meningitidis) (UniProt O05925)
T3 sequence: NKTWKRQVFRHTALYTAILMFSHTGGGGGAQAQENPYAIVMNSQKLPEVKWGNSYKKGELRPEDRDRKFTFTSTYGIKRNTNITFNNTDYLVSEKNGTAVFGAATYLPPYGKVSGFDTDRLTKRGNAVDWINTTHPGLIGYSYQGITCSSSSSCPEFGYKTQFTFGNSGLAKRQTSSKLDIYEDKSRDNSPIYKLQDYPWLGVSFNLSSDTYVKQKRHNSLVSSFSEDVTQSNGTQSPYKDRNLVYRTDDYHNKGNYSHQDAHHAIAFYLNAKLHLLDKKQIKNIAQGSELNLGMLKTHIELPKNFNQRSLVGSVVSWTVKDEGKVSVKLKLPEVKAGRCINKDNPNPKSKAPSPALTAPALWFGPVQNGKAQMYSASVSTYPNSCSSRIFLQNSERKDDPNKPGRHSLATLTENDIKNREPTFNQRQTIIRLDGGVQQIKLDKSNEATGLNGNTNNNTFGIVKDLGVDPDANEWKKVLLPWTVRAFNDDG

Measured: binding

MDAΦ ORF6
no binding: all assays above
